In PMC8899575:
These are yes or no findings as the source states them, for the method shown. Binding seen in cells or lysates may run through a third protein. Some binding calls cover weakened binding; strength is not graded here.

Sequences of proteins named here, by UniProt entry; tags and fusion partners are left off.
UniProt O09106: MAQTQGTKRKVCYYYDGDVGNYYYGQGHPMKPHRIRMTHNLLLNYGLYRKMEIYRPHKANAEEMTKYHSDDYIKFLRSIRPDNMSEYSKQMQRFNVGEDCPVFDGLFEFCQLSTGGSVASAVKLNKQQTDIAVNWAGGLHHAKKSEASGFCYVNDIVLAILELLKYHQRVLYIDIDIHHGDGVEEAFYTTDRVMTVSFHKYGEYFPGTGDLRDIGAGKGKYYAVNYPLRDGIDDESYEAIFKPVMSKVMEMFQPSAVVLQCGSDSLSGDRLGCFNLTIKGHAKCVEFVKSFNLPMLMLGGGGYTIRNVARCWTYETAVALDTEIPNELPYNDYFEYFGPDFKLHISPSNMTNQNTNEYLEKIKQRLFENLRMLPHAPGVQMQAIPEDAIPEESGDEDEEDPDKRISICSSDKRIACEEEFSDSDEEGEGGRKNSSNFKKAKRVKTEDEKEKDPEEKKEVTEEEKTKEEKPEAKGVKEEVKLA
UniProt P23804: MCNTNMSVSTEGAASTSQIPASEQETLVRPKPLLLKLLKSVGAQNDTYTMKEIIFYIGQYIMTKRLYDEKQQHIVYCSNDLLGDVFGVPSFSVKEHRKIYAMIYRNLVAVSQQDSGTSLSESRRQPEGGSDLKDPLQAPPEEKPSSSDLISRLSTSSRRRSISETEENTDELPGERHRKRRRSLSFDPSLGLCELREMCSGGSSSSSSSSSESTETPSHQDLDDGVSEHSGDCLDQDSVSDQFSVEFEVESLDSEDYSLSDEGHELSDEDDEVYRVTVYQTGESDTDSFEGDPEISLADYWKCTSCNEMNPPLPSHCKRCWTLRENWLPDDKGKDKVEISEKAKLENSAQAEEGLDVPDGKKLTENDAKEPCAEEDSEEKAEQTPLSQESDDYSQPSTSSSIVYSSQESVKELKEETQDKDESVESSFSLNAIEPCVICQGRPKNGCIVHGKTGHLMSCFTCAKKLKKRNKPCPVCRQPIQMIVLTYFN

Molecular target: histone deacetylase 1 (HDAC1), endogenous (mouse (endogenous in liver)) (UniProt O09106)
Assay: co-IP; endogenous proteins in mouse liver lysates (Rack1 F/F and Rack1 Δhep livers for HDAC1-MDM2); IP with an anti-HDAC1 or an anti-RACK1 antibody, control rabbit IgG; immunoblotting

- binding: binds
Substance: mouse double minute 2 (MDM2), endogenous (from UniProt P23804 1-489)
